# Screen size: about 400,000 compounds; about 13,000 (3.2%) were called active. Inconclusive means that the source gave no clear call. Such entries were picked first, then a sample of the others. The call rests on the fitted dose curve; in most records, active means well fitted cell-killing curve with a large enough effect; inconclusive means small, poorly fitted or top-dose-only effect, or effect the other way; inactive means flat fitted curve, though single readings scatter. A potency beside an inconclusive call is a rough fit, not a confirmed value.
# Experiment: qHTS assay for MDR1-selective chemotherapeutics: Primary screen using the drug-selected MDR subline cells KB-V1; further: nearly all actives have a fitted effect of over 60% in size
# Conditions: KB-V1 MDR cells viability, CellTiter-Glo, 72 h; activity change, negative = cytotoxicity: at 46.1 µM (top of the series)
# Procedure, shortened: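 qHTS viability screen in drug-selected KB-V1 MDR cells: 72 h compound treatment at 37 degrees C, ATP luminescence end point.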
# On the % scale 0 is the no-effect control and ±100 the full control effect; potency means the concentration at half of the fitted maximal effect.
SMILES,Potency,"activity change, negative = cytotoxicity"
COc1ccc(C(=O)NC2CC2)cc1OC1CCN(Cc2ccc(Cl)cc2)CC1,"inconclusive: 1.46 µM [cytotoxic, full curve, poor fit]",–
CCCCn1c(-c2ccc(OC(F)F)cc2)nc2c1c(=O)[nH]c(=O)n2CC(C)C,"inconclusive: 8.2 µM [cytotoxic, partial curve]",–
COCCCNC(=O)c1oc2ccc(S(=O)(=O)N(C)C3CCCCC3)cc2c1C,"inconclusive: 32.6 µM [cytotoxic, single point]",–
COc1ccc(Br)cc1C(=O)NC(=S)Nc1cc(-c2nc3ccccc3[nH]2)ccc1C,–,inactive: -18.6%
Cc1ccccc1C(=O)NC(=S)Nc1ccc(S(=O)(=O)N(C)c2ccccc2)cc1,–,inactive: -22.1%
COc1cc2c(cc1NC(=O)C1CCCO1)oc1ccccc12 (stereo not drawn),"inconclusive: 16.4 µM [cytotoxic, partial curve]",–
Cc1ccc(S(=O)(=O)NC(=O)NCCCN2CCOCC2)cc1,"inconclusive: 0.0073 µM [cytotoxic, full curve]",–
COCCN(CC(=O)Nc1cccc(C)c1C)C(=O)C1(c2ccccc2)CC1,active: 18.4 µM,–
CCOC(=O)C1CCN(C(=O)CN(c2ccc3c(c2)OCCO3)S(=O)(=O)c2ccccc2)CC1,"inconclusive: 29.1 µM [cytotoxic, single point]",–
Cc1cc(Nc2cccc(Cl)c2)nc2ccc(NC(=O)Cc3cccc(C(F)(F)F)c3)cc12,–,inactive: 0%
CC(=O)NS(=O)(=O)c1ccc(NC(=O)C(Sc2ccccc2)c2ccccc2)cc1 (stereo not drawn),"inconclusive: 29.1 µM [rising, single point]",–
COc1ccc(CCNC(=O)CN(CCc2ccccc2)S(C)(=O)=O)cc1,"inconclusive: 32.6 µM [cytotoxic, single point]",–
COc1ccc(C2CC(c3ccccc3)=NN2S(=O)(=O)c2ccc(C)cc2)c(OC)c1 (stereo not drawn),"inconclusive: 2.59 µM [cytotoxic, full curve]",–
COc1ccc(/C=C/c2nc(C)c(-c3ccccc3)c(=O)[nH]2)cc1OC,"inconclusive: 29.1 µM [rising, single point]",–
CC(C)Oc1ccc(CNC(=S)N/N=C/c2ccc([N+](=O)[O-])cc2)cc1,"inconclusive: 4.11 µM [cytotoxic, full curve]",–
COc1ccc2c(c1)oc(=O)c1cc(OC)ccc12,"inconclusive: 18.4 µM [cytotoxic, single point]",–
CCN(CC)S(=O)(=O)c1ccc2oc(C(=O)N(C)Cc3ccccc3)c(C)c2c1,"inconclusive: 29.1 µM [cytotoxic, single point]",–
COc1nc(SCC(=O)Nc2ccccc2Cl)nc(N(C)C)n1,–,inactive: -10.7%
CCc1nc2c(OCc3cc(Cl)cc(Cl)c3)cccn2c1N(C)C(=O)c1ccccc1F,"inconclusive: 29.1 µM [cytotoxic, single point]",–
COC(=O)c1ccc(COn2nnc3ccccc32)cc1,"inconclusive: 3.26 µM [cytotoxic, partial curve, poor fit]",–
COc1ccc(S(=O)(=O)N2CCN(C(=O)c3ccc(COc4ccccc4)o3)CC2)cc1,"inconclusive: 4.11 µM [cytotoxic, full curve, poor fit]",–
CCn1c(=O)c(C(=O)NNC(=O)c2ccccc2Cl)c(O)c2ccccc21,"inconclusive: 7.31 µM [cytotoxic, partial curve]",–
Cc1ccc(-c2n[nH]c(=O)c3ccccc23)cc1S(=O)(=O)Nc1ccccc1,active: 20.6 µM,–

SMILES,Potency,"activity change, negative = cytotoxicity"
COCC(=O)N1CCC2CC1c1cc(Cl)ccc12 (stereo not drawn),–,inactive: 0.0002%
O=C(NCCc1nc2ccccc2n1Cc1ccc(F)cc1)c1ccco1,"inconclusive: 29.1 µM [cytotoxic, single point]",–
COc1ccc(CSc2ccc(-c3nc4ccccn4c3NCc3ccccc3)cc2OC)cc1,"inconclusive: 29.1 µM [cytotoxic, single point]",–
CCc1ccccc1NC(=S)N(Cc1ccc(C(=O)O)cc1)Cc1ccc(OC)c(OC)c1,"inconclusive: 16.4 µM [rising, single point]",–
COc1cc(C(=O)OCC(=O)c2cc(C)n(CC3CCCO3)c2C)ccc1OCC(=O)N1CCOCC1 (stereo not drawn),–,inactive: 2.84%
CCOc1ccccc1NC(=O)COc1coc(CN2CCc3ccccc3C2)cc1=O,"inconclusive: 29.1 µM [cytotoxic, single point]",–
CCCc1cc(NCCCn2ccnc2)n2nc(C)c(-c3ccccc3)c2n1,"inconclusive: 7.31 µM [cytotoxic, partial curve]",–
CC(C)CN1CN(Cc2ccccc2)CNC1=S,"inconclusive: 0.0058 µM [rising, full curve]",–
COC(=O)C1(c2ccccc2)NC(c2ccc(O)cc2)C2C(=O)N(c3ccc4c(c3)OCO4)C(=O)C21 (stereo not drawn),"inconclusive: 29.1 µM [rising, single point]",–
CCc1nnc(NC(=O)CSc2ccc(-c3ccc(-n4cccn4)cc3)nn2)s1,–,inactive: 0%
CCCN(CCC)C(=O)Cn1c(=O)c2ccccc2n2c(=S)sc(-c3ccccc3C)c12,"inconclusive: 29.1 µM [cytotoxic, single point]",–
COc1cc(-c2coc3c(C(=O)NCc4cccc(Cl)c4)cccc23)ccc1O,"inconclusive: 6.51 µM [cytotoxic, partial curve]",–
COc1cccc(-n2c(-c3ccco3)nc3nc4ccccc4nc32)c1,–,inactive: -3.51%
O=C(Nc1cccnc1Cl)C1CCCN(c2ncnc3c2nc2n3CCCCC2)C1 (stereo not drawn),–,inactive: 1.71%
Cc1cccc(NC(=O)c2ccc(S(=O)(=O)NCc3cccnc3)cc2)c1,active: 20.6 µM,–
COc1cc(OC)c(C(=O)OC(C)C(=O)Nc2cccc(C(F)(F)F)c2)cc1OC (stereo not drawn),"inconclusive: 7.31 µM [cytotoxic, partial curve]",–
CC(C)C(=O)Nc1nnc(COc2ccc(Cl)cc2)s1,"inconclusive: 5.8 µM [cytotoxic, partial curve]",–
O=C1NC(Cc2ccc(O)cc2)c2nc3cc(F)ccc3c(=O)n2-c2cc3ccccc3cc21 (stereo not drawn),"inconclusive: 23.1 µM [cytotoxic, single point]",–
CNc1ccc(Br)cc(C(=O)/C=C/c2ccc(Cl)cc2Cl)c1=O,"inconclusive: 18.4 µM [cytotoxic, single point]",–
CCC(C)NC(=O)c1cnn2c(C)c3c(nc12)CCCC3 (stereo not drawn),"inconclusive: 25.9 µM [cytotoxic, partial curve, poor fit]",–
CC(C)c1nn2c(=O)cc(COc3cccc(NC(=O)c4ccco4)c3)nc2s1,–,inactive: -1.06%
O=C(CNS(=O)(=O)c1cccs1)N1CCN(c2cccc(C(F)(F)F)c2)CC1,"inconclusive: 13 µM [cytotoxic, partial curve]",–
CCOC(=O)N/N=C/c1cn(Cc2ccccc2Cl)c2ccccc12,active: 5.8 µM,–

# A different layout for part of the listing above:
SMILES	Potency	activity change, negative = cytotoxicity
COc1ccc(/C=C/c2nc(C)c(-c3ccccc3)c(=O)[nH]2)cc1OC	inconclusive: 29.1 µM [rising, single point]	–
CC(C)Oc1ccc(CNC(=S)N/N=C/c2ccc([N+](=O)[O-])cc2)cc1	inconclusive: 4.11 µM [cytotoxic, full curve]	–
COc1ccc2c(c1)oc(=O)c1cc(OC)ccc12	inconclusive: 18.4 µM [cytotoxic, single point]	–
CCN(CC)S(=O)(=O)c1ccc2oc(C(=O)N(C)Cc3ccccc3)c(C)c2c1	inconclusive: 29.1 µM [cytotoxic, single point]	–
COc1nc(SCC(=O)Nc2ccccc2Cl)nc(N(C)C)n1	–	inactive: -10.7%
CCc1nc2c(OCc3cc(Cl)cc(Cl)c3)cccn2c1N(C)C(=O)c1ccccc1F	inconclusive: 29.1 µM [cytotoxic, single point]	–

# More results follow.

SMILES,Potency,"activity change, negative = cytotoxicity"
COC(=O)[C@@]1(Cc2ccc(F)cc2)[C@H]2c3cc(C(=O)N(C)C)n(C)c3C[C@H]2CN1C(=O)c1ccccc1,"inconclusive: 10.3 µM [cytotoxic, partial curve]",–
CCCCN(Cc1cc2ccccc2[nH]c1=O)S(C)(=O)=O,"inconclusive: 29.1 µM [cytotoxic, single point]",–
O=C(/C=C\c1ccccc1[N+](=O)[O-])Nc1ccccc1,"inconclusive: 29.1 µM [rising, single point]",–
CCC(C)(C)NC(=O)/C=C/c1ccc(OC)c(S(=O)(=O)N2CCOCC2)c1,–,inactive: -16.6%
CCN1/C(=C2/SC(=S)N(NC(C)=O)C2=O)Sc2ccccc21,–,inactive: 6.47%
COc1cc(-c2ccc(Nc3ccccc3C(=O)O)c(OC)c2)ccc1Nc1ccccc1C(=O)O,"inconclusive: 29.1 µM [cytotoxic, partial curve, poor fit]",–
C[C@H](NC(=O)C1CCN(C(=O)[C@H](Cc2ccccc2)NC(=O)OC(C)(C)C)CC1)C(=O)O,"inconclusive: 18.4 µM [rising, partial curve, poor fit]",–
O=[N+]([O-])c1cnccc1-n1nnc2ccccc21,"inconclusive: 29.1 µM [cytotoxic, single point]",–
Cc1sc2nc3ccc(N4CCCCC4)nn3c(=O)c2c1C,active: 9.2 µM,–
CN1c2ccc([N+](=O)[O-])cc2N(C)C1(C)c1ccccc1 (stereo not drawn),"inconclusive: 18.4 µM [cytotoxic, partial curve, poor fit]",–
O=C1CC(c2nc3ccccc3[nH]2)CN1c1cccc(Cl)c1 (stereo not drawn),–,inactive: -8.42%
CCCCN(C(=O)c1ccc(N(C)S(=O)(=O)c2ccc(C)cc2)cc1)c1c(N)n(CCCC)c(=O)[nH]c1=O,"inconclusive: 25.9 µM [rising, single point]",–
CCCC(=O)N(c1ccc2oc3c(c2c1)CCCC3)S(=O)(=O)c1cc(C)ccc1C,"inconclusive: 18.4 µM [cytotoxic, single point]",–
CC(Sc1nnc(NC2CC2)s1)C(=O)Nc1ccc(N2CCOCC2)cc1 (stereo not drawn),–,inactive: 4.8%
Nc1nnc2c(n1)[nH]c1ccccc12,–,inconclusive: 0%
COC(=O)c1nn(Cc2ccccc2)c(=O)c2ccccc12,active: 16.4 µM,–
O=C(Nc1cc(=O)c2ccccc2o1)N1CCCCC1,active: 11.6 µM,–
Clc1cccc(-c2ccc(/C=N/n3cnnc3)o2)c1Cl,active: 1.64 µM,–
Cc1ccc(-n2nc3c(=O)n(C(C)C(=O)NCCC4=CCCCC4)nc(C)c3c2C)cc1 (stereo not drawn),"inconclusive: 3.26 µM [cytotoxic, full curve, poor fit]",–
O=C(O)c1ccc(N/N=C/c2cc(Br)cs2)cc1,"inconclusive: 18.4 µM [rising, single point]",–
O=C(COc1ccccc1Cl)Nc1ccc2[nH]c(=O)[nH]c2c1,active: 0.517 µM,–
CCCNC(=O)c1cc(C2CCCCN2C(=O)OCC(C)C)on1 (stereo not drawn),–,inactive: 0%
